Source: PubChem BioAssay AID330 (DTP/NCI, 2004)
The list does not hold the whole screen: it is rich in T/C values a quarter to a half above the control, in often repeated tests (any T/C) and in doses without a T/C. Further doses and runs are listed elsewhere. T/C: endpoint of the treated group in % of that of the vehicle group. Some entries give survivors of the animals treated and no T/C: the source holds a T/C of zero for them, seemingly a mark for toxic or unscored doses. Some survivor counts are full or nearly so, which does not show that the dose was tolerated: survival well below the control is almost never listed, so the zero probably covers shortened survival too. Counts of survivors are from the toxicity check (mostly the fifth day) where no day follows; animals may have died later. Schedule codes are those of the source, taken here to give the interval after Q, in days (D) or hours (H), and the number of doses after X. Some entries hold several experiments; their values stand side by side, smallest first. Brackets with × count equal records among those shown. Where survival is the endpoint, this PubChem deposit counts one and a half times the control or more as active, and values a quarter to a half above the control carry no call in these data; other NCI protocols may use other cut-offs. Some T/C values carry the count of animals alive at the toxicity check (mostly the fifth day); where none is given, no animal had died by that day.

Tested on: P388 leukemia ip, CD2F1 mice, survival T/C
Test: NCI In Vivo Anticancer Drug Screen. Data for tumor model P388 Leukemia (intraperitoneal) in CD2F1 (CDF1) mice
Conditions: T/C endpoint: median survival time, higher T/C = longer survival
[1] = dose: 100.0 mg/kg/injection, schedule: Q01DX005 (ip), vehicle: distilled water + Tween-80

## CCN(CC)CCNc1ccc(C)c2sc3ccccc3c(=O)c12
dose: 6.25 mg/kg/injection, schedule: Q01DX005 (ip), vehicle: water, evaluated on day 20
  T/C: 101 % of control
dose: 6.25 mg/kg/injection, schedule: Q01DX005 (ip), vehicle: water, evaluated on day 30
  T/C: 95, 96, 97, 98 (2×), 99, 100 (5×), 101 (2×), 102 (6×), 104 (4×), 105 (5×), 106 (2×), 107 (2×), 108 (5×), 109, 111, 112 % of control
dose: 6.25 mg/kg/injection, schedule: Q01DX005 (ip), vehicle: water, evaluated on day 35
  T/C: 102, 104 (2×), 124 % of control
dose: 6.25 mg/kg/injection, schedule: Q01DX005 (ip), vehicle: water, evaluated on day 40
  T/C: 100 % of control
dose: 6.25 mg/kg/injection, schedule: Q01DX005 (ip), vehicle: water, evaluated on day 45
  T/C: 99 % of control
dose: 6.25 mg/kg/injection, schedule: Q01DX005 (ip), vehicle: water, evaluated on day 50
  T/C: 112 % of control
dose: 12.5 mg/kg/injection, schedule: Q01DX005 (ip), vehicle: water, evaluated on day 20
  T/C: 100 % of control
dose: 12.5 mg/kg/injection, schedule: Q01DX005 (ip), vehicle: water, evaluated on day 30
  T/C: 89, 95, 97 (2×), 98 [5 of 6 alive], 99 (3×), 100 (4×), 102 (4×), 103, 104 (3×), 105 (3×), 106 (3×), 106 [5 of 6 alive], 107 (2×), 108 (3×), 109 (2×), 110, 111 (3×), 112, 113, 115 % of control
dose: 12.5 mg/kg/injection, schedule: Q01DX005 (ip), vehicle: water, evaluated on day 35
  T/C: 104 [5 of 6 alive], 105, 110, 126 % of control
dose: 12.5 mg/kg/injection, schedule: Q01DX005 (ip), vehicle: water, evaluated on day 40
  T/C: 108 % of control
dose: 12.5 mg/kg/injection, schedule: Q01DX005 (ip), vehicle: water, evaluated on day 45
  T/C: 103 % of control
dose: 12.5 mg/kg/injection, schedule: Q01DX005 (ip), vehicle: water, evaluated on day 50
  T/C: 110 % of control
dose: 25.0 mg/kg/injection, schedule: Q01DX005 (ip), vehicle: distilled water + Tween-80
  T/C: 105, 107 (2×), 132 % of control
dose: 25.0 mg/kg/injection, schedule: Q01DX005 (ip), vehicle: water, evaluated on day 20
  T/C: 124 % of control
dose: 25.0 mg/kg/injection, schedule: Q01DX005 (ip), vehicle: water, evaluated on day 30
  T/C: 91, 100, 102 [4 of 5 alive], 104 (3×), 105 (2×), 106 (2×), 107 (2×), 108, 109 (2×), 110 (3×), 111 (4×), 112, 114 (3×), 114 [5 of 6 alive], 115 (3×), 116 (3×), 118, 119 (2×), 120, 121, 123 (2×), 137 % of control
dose: 25.0 mg/kg/injection, schedule: Q01DX005 (ip), vehicle: water, evaluated on day 35
  T/C: 106, 119, 139, 141 % of control
dose: 25.0 mg/kg/injection, schedule: Q01DX005 (ip), vehicle: water, evaluated on day 40
  T/C: 112 % of control
dose: 25.0 mg/kg/injection, schedule: Q01DX005 (ip), vehicle: water, evaluated on day 45
  T/C: 107 % of control
dose: 25.0 mg/kg/injection, schedule: Q01DX005 (ip), vehicle: water, evaluated on day 50
  T/C: 125 % of control
dose: 27.0 mg/kg/injection, schedule: Q01DX005 (ip), vehicle: saline
  T/C: 130 % of control
dose: 31.3 mg/kg/injection, schedule: Q01DX005 (ip), vehicle: saline
  T/C: 140 % of control
dose: 32.4 mg/kg/injection, schedule: Q01DX005 (ip), vehicle: saline
  T/C: 132 % of control
dose: 36.0 mg/kg/injection, schedule: Q01DX005 (ip), vehicle: water
  T/C: 135 % of control
dose: 45.0 mg/kg/injection, schedule: Q01DX005 (ip), vehicle: saline
  T/C: 142 % of control
dose: 45.0 mg/kg/injection, schedule: Q01DX005 (ip), vehicle: water
  T/C: 126 % of control [7 of 8 alive]
dose: 50.0 mg/kg/injection, schedule: Q01DX005 (ip), vehicle: distilled water + Tween-80
  T/C: 97, 120, 127, 128 % of control
dose: 50.0 mg/kg/injection, schedule: Q01DX005 (ip), vehicle: saline with Tween-80
  T/C: 131 % of control
dose: 50.0 mg/kg/injection, schedule: Q01DX005 (ip), vehicle: water, evaluated on day 20
  T/C: 145 % of control [4 of 5 alive]
dose: 50.0 mg/kg/injection, schedule: Q01DX005 (ip), vehicle: water, evaluated on day 30
  T/C: 106 (2×), 114 (2×), 120, 121, 122, 123 (2×), 125 (2×), 127, 128, 129 (4×), 130, 130 [4 of 6 alive], 131, 132 (2×), 133, 135 (5×), 136 (2×), 137, 138 (2×), 139 (2×), 141, 143, 144, 145, 148, 152 % of control
dose: 50.0 mg/kg/injection, schedule: Q01DX005 (ip), vehicle: water, evaluated on day 35
  T/C: 142 (2×) and 171 % of control
dose: 50.0 mg/kg/injection, schedule: Q01DX005 (ip), vehicle: water, evaluated on day 40
  T/C: 141 % of control
dose: 50.0 mg/kg/injection, schedule: Q01DX005 (ip), vehicle: water, evaluated on day 45
  T/C: 116 % of control
dose: 50.0 mg/kg/injection, schedule: Q01DX005 (ip), vehicle: water, evaluated on day 50
  T/C: 131 % of control
dose: 54.0 mg/kg/injection, schedule: Q01DX005 (ip), vehicle: saline
  T/C: 138 % of control
dose: 60.0 mg/kg/injection, schedule: Q01DX005 (ip), vehicle: water
  T/C: 141 % of control
dose: 64.8 mg/kg/injection, schedule: Q04DX003 (ip), vehicle: saline
  T/C: 146 % of control
dose: 75.0 mg/kg/injection, schedule: Q01DX005 (ip), vehicle: saline
  T/C: 144 % of control [7 of 8 alive]
dose: 90.0 mg/kg/injection, schedule: Q01DX005 (ip), vehicle: saline
  survivor count: 8 of 8
dose: 90.0 mg/kg/injection, schedule: Q01DX005 (ip), vehicle: water
  T/C: 138 % of control
[1]
  T/C: 99, 149, 169 % of control
  survivor count: 3 of 5
dose: 100.0 mg/kg/injection, schedule: Q01DX005 (ip), vehicle: saline with Tween-80
  survivor count: 3 of 6
dose: 100.0 mg/kg/injection, schedule: Q01DX005 (ip), vehicle: water, evaluated on day 20
  T/C: 157 % of control
dose: 100.0 mg/kg/injection, schedule: Q01DX005 (ip), vehicle: water, evaluated on day 30
  T/C: 89 [5 of 6 alive], 96, 140, 141 [4 of 5 alive], 147, 150, 151, 154, 154 [4 of 5 alive], 155 [5 of 6 alive], 156, 157, 157 [5 of 6 alive], 160, 161, 161 [5 of 6 alive], 163 (3×), 163 [5 of 6 alive], 168 (2×), 169, 174 (3×), 178, 182, 188 % of control
dose: 100.0 mg/kg/injection, schedule: Q01DX005 (ip), vehicle: water, evaluated on day 35
  T/C: 185 % of control
dose: 100.0 mg/kg/injection, schedule: Q01DX005 (ip), vehicle: water, evaluated on day 40
  T/C: 93 % of control
dose: 100.0 mg/kg/injection, schedule: Q01DX005 (ip), vehicle: water, evaluated on day 45
  T/C: 155 and 159 % of control [6 of 8 alive]
dose: 100.0 mg/kg/injection, schedule: Q01DX005 (ip), vehicle: water, evaluated on day 50
  T/C: 162 % of control
dose: 100.0 mg/kg/injection, schedule: Q01DX005 (ip), vehicle: water
  survivor count: 0 of 6, 1 of 6, 3 of 6 (2×), 4 of 6 (2×), 4 of 5, 5 of 6 (2×), 5 of 5
dose: 100.0 mg/kg/injection, schedule: Q01DX009 (ip), vehicle: water
  T/C: 135 % of control
dose: 108.0 mg/kg/injection, schedule: Q04DX003 (ip), vehicle: saline
  T/C: 138 % of control
dose: 125.0 mg/kg/injection, schedule: Q01DX005 (ip), vehicle: saline
  survivor count: 3 of 3
dose: 125.0 mg/kg/injection, schedule: Q01DX005 (ip), vehicle: water
  survivor count: 3 of 8
dose: 150.0 mg/kg/injection, schedule: Q01DX005 (ip), vehicle: saline
  survivor count: 8 of 8
dose: 150.0 mg/kg/injection, schedule: Q01DX005 (ip), vehicle: water
  survivor count: 0 of 8
dose: 200.0 mg/kg/injection, schedule: Q01DX005 (ip), vehicle: distilled water + Tween-80
  survivor count: 1 of 5 and 5 of 6
dose: 200.0 mg/kg/injection, schedule: Q01DX005 (ip), vehicle: saline with Tween-80
  survivor count: 3 of 6
dose: 200.0 mg/kg/injection, schedule: Q01DX005 (ip), vehicle: water
  survivor count: 1 of 5
dose: 300.0 mg/kg/injection, schedule: Q04DX003 (ip), vehicle: saline
  T/C: 149 % of control
